The values that follow come from doi:10.1101/2022.04.18.488654.

Weaker means in comparison with the reference protein, sequence or condition of that experiment.

This series concerns the target DnaD F6A (Bacillus subtilis 168CA) (UniProt P39787). The series is described as follows: fluorescence polarisation. The conditions noted are these: residues 1-232. (Fluorescence polarisation rises when a labelled molecule tumbles more slowly, as on binding a larger partner.)

For the sequence “TTTTTTTTTTTTTTTTTTTTTTTTTTTTTTTTTTTTTTTT [polyT40 (oCW837)]”, the binding result is “binds more weakly”.
